In publication PMC6026378:
These are yes or no findings as the source states them, for the method shown. Binding seen in cells or lysates may run through a third protein. Binding can be weak; no strength is given.

The chains behind the UniProt entries cited, without tags or fusion partners. Where a name states a change or a piece, a line headed by the entry shows the natural chain unless it says otherwise.
UniProt P13608: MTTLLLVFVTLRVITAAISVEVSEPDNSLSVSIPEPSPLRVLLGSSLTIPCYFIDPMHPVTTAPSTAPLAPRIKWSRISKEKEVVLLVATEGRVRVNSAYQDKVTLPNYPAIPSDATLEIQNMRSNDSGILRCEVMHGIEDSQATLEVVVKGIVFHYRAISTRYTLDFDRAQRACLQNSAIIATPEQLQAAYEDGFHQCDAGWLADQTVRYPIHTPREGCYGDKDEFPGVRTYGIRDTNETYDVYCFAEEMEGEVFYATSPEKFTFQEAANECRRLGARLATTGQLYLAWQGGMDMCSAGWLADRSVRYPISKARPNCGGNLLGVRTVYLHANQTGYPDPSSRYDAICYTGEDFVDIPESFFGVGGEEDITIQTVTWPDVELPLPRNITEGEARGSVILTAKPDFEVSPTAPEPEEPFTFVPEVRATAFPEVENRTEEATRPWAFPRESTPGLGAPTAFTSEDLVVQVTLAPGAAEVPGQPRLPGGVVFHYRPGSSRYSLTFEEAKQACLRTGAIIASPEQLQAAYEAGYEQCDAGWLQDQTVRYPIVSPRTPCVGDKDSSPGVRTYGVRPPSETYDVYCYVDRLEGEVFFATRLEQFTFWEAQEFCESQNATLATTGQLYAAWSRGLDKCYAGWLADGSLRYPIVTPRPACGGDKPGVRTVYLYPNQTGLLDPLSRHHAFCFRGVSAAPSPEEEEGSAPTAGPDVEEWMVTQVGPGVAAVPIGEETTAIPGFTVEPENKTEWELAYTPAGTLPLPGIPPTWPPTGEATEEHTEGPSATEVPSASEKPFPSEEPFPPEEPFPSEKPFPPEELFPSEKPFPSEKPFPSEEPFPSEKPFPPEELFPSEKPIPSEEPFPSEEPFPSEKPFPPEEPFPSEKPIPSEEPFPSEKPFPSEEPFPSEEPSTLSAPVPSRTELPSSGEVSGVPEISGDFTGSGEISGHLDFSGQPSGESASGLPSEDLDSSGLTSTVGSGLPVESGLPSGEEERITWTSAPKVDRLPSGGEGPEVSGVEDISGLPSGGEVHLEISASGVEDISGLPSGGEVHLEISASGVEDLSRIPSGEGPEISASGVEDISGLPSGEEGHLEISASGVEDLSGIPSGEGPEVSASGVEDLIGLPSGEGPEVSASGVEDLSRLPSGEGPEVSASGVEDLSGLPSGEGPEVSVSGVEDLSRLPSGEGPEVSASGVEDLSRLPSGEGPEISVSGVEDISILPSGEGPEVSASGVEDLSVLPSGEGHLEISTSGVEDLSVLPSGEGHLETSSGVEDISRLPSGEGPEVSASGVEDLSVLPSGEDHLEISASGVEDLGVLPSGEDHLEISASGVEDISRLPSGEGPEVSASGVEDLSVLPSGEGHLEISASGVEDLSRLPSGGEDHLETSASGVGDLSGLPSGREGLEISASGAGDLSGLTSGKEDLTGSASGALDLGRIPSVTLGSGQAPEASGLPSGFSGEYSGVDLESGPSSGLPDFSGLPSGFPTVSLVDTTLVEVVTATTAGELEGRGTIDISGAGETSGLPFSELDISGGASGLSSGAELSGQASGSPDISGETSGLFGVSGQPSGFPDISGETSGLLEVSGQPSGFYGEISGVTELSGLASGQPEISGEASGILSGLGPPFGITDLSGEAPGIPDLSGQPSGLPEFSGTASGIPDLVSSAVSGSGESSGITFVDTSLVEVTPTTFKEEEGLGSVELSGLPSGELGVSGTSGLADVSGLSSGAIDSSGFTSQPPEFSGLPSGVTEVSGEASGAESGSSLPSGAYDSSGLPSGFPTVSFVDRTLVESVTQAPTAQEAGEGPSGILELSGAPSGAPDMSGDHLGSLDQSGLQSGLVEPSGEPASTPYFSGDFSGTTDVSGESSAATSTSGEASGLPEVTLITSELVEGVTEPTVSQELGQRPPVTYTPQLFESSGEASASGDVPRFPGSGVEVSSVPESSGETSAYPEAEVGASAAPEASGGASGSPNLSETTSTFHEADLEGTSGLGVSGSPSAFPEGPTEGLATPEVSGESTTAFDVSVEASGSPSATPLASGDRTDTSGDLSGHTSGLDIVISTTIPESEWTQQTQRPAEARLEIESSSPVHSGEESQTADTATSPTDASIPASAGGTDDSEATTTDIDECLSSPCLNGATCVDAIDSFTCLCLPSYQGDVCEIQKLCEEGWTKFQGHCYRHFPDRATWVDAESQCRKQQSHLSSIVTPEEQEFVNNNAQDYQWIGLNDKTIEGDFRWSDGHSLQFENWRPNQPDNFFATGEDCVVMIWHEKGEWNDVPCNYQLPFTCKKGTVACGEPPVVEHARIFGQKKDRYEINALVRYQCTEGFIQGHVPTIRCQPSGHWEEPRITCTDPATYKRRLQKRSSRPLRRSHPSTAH

Biological target: aggrecan G1 domain (bovine (purified from bovine articular cartilage)) (UniProt P13608)
Assay: co-purification from tissue; complex of AG1 and LP purified from bovine articular cartilage, as described previously (ref. 33)

B1: cartilage link protein (protein, UniProt P55252 16-354)
chain: DHHSDNYTVDHDRVIHIQAENGPRLLVEAEQAKVFSRRGGNVTLPCKFYRDPTAFGSGTHKIRIKWTKLTSDYLKEVDVFVSMGYHKKTYGGYHGRVFLKGGSDNDASLVITDLTLEDYGRYKCEVIEGLEDDTAVVALDLQGVVFPYFPRLGRYNLNFHEAQQACLDQDAVIASFDQLYDAWRSGLDWCNAGWLSDGSVQYPITKPREPCGGQNTVPGVRNYGFWDKDKSRYDVFCFTSNFNGRFYYLIHPTKLTYDEAVQACLNDGAQIAKVGQIFAAWKLLGYDRCDAGWLADGSVRYPISRPRRRCSPSEAAVRFVGFPDKKHKLYGVYCFRAYN
**Q.** How did the binding turn out when B1 was run?
**A.** Its binding is “binds”.
